From US20090069343A1, “Combination Histamine H1R and H4R Antagonist Therapy for Treating Pruritus” (priority 2006, published 2009)
At least one compound was matched to its structure with a doubt left.

Tested on: CD-1 mice, histamine-induced itch
Assay: Histamine-induced itch, Example 1a
Type: in vivo, mouse
Conditions: oral dose 20 min before i.d. histamine, FIG. 8
Procedure: Methods. Experiments and procedures were performed under on-site IACUC standards and regulations. Female CD-1 mice (Charles River Hollister, Calif.) of approximately 10-12 weeks of age were used. Mice were housed under controlled light (6:00-18:00 h) and temperature (22° C.) with food and water available ad libitum. Histamine diphosphate (Sigma, St. Louis, Mo.) was dissolved in Dulbecco's phosphate buffered saline (PBS, pH=7.4) at various concentrations. H4R Inhibitor 1 was synthesized as described by Jablonowski et al. (J. Med. Chem. (2003), 46, 3957-3960), dissolved in a vehicle of 20% HPBCD/water at various concentrations, and administered per os (p.o.; by mouth) at a volume of 10 ml/kg. Antagonists of other histamine receptors, H1R (diphenhydramine and desloratadine), H2R (ranitidine) and H3R (1-[3-(4-piperidin-1-ylmethyl-phenoxy)-propyl]-piperidine, (“H3R Antagonist 1”; synthesized as described by Barbier et al., British J. Pharmacology (2004), 143: 649-661) were formulated similarly for use in experiments. In all experiments the hair was clipped over the rostral part of the back 24 hours prior to i.d. injection of pruritogen. Where noted, animals received an oral dose of histamine receptor antagonist 20 minutes prior to injection of pruritogen. Animals were injected i.d. with 20 μl of histamine. PBS was given as the vehicle control (“V). […]

CNC(=C[N+](=O)[O-])NCCSCc1ccc(CN(C)C)o1 [ranitidine]
effect on histamine-induced itch: neither the H2R antagonist ranitidine nor the H3R antagonist demonstrated significant inhibition
